Patent US20160017049A1
No constants are given. Whether binding was seen depends on the method and setting. Some results given as binding are weak or reduced against the parent protein; the word gives no strength.

Protein sequences, listed by entry. Tags and fused reporters are not part of them. Lines headed by an entry give the natural chain unless they say otherwise; changes in a name come on top.
UniProt P51654: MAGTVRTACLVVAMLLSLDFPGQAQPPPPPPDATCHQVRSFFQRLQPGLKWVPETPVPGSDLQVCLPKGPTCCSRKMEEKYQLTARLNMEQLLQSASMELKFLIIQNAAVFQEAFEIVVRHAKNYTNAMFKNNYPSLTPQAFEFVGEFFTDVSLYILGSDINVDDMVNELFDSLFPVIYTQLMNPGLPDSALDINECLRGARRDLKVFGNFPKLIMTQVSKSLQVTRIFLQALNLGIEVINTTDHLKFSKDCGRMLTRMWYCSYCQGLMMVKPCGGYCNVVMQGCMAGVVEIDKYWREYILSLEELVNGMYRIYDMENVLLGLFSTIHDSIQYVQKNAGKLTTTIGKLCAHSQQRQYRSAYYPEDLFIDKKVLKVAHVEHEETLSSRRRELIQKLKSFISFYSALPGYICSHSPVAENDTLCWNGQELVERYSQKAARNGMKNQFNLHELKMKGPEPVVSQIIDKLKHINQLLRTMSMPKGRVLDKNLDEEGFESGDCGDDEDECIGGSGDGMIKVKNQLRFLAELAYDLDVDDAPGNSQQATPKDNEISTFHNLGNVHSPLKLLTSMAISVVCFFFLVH
UniProt Q8CFZ4: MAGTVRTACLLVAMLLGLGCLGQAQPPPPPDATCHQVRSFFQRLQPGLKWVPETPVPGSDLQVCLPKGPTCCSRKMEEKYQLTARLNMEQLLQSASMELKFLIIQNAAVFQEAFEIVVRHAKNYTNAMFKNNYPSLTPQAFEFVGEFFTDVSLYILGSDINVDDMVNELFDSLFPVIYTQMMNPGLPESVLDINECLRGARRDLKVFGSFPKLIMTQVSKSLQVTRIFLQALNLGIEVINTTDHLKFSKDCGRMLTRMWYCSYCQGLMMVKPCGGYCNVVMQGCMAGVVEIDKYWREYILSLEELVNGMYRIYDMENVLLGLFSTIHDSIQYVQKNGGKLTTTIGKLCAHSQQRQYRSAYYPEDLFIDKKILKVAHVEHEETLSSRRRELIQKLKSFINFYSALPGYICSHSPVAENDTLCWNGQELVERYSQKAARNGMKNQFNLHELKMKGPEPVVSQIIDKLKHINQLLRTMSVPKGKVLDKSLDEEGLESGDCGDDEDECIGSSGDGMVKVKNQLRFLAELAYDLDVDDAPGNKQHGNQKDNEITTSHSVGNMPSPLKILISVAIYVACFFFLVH
UniProt P13265: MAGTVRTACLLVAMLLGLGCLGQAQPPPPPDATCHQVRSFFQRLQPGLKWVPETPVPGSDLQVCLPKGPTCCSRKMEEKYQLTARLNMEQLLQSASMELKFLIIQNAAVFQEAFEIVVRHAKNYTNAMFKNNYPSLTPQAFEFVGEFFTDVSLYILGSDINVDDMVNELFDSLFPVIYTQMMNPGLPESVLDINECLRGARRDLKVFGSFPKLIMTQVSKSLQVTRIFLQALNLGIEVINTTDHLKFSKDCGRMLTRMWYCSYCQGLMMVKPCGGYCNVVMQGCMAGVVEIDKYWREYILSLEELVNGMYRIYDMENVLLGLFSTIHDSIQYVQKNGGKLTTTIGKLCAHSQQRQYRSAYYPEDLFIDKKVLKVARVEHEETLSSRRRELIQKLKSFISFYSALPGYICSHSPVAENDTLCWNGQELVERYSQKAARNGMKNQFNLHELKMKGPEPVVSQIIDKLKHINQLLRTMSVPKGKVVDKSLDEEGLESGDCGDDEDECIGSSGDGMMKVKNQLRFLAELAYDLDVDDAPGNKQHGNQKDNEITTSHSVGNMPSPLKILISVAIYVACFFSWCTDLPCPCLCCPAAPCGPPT

Experiments:
[1] = biological target: human GPC3, full length, on the surface of cells (human) (UniProt P51654); test: FACS on cells isolated from a HepG2 X1 xenograft tumor (endogenous GPC3)
[2] = biological target: human GPC3 (Western blot) (human) (UniProt P51654); test: Western blot (told again, 'as discussed above')
[3] = biological target: mouse GPC3 (Western blot) (mouse) (UniProt Q8CFZ4); test: Western blot (told again, 'as discussed above')
[4] = biological target: cynomolgus monkey GPC3 (Western blot) (cynomolgus monkey); test: Western blot (told again, 'as discussed above')
[5] = biological target: rat GPC3 (Western blot) (rat) (UniProt P13265); test: Western blot (told again, 'as discussed above')
[6] = biological target: human GPC3 (Western blot) (human) (UniProt P51654); test: Western blot
[7] = biological target: mouse GPC3 (Western blot) (mouse) (UniProt Q8CFZ4); test: Western blot
[8] = biological target: cynomolgus monkey GPC3 (Western blot) (cynomolgus monkey); test: Western blot
[9] = biological target: rat GPC3 (Western blot) (rat) (UniProt P13265); test: Western blot
[10] = biological target: human GPC3, full length, on the surface of cells (human) (UniProt P51654); test: FACS on JHH7 cells (endogenous GPC3)
[11] = biological target: human GPC3, full length, on the surface of cells (human) (UniProt P51654); test: FACS on cells isolated from a JHH7 xenograft tumor (endogenous GPC3)
[12] = biological target: human GPC3, full length, on the surface of cells (human) (UniProt P51654); test: FACS on JHH7 cells and xenograft tumor cells
[13] = biological target: human GPC3, full length, on the surface of cells (human) (UniProt P51654); test: FACS on HepG2 X1 and 293S-GPC3 cells
[14] = biological target: human GPC3, full length, on the surface of cells (human) (UniProt P51654); test: IHC on tissue microarray and GPC3-expressing cells
[15] = biological target: human GPC3, full length, on the surface of cells (human) (UniProt P51654); test: FACS on HepG2 X1 cells (endogenous GPC3)
[16] = biological target: human GPC3, full length, on the surface of cells (human) (UniProt P51654); test: FACS (FIG. 13A-B)
[17] = biological target: human GPC3, full length, on the surface of cells (human) (UniProt P51654); test: FACS, 7H1 on HepG2 X1 cells (endogenous GPC3) and on 293S cells expressing full-length GPC3
[18] = biological target: human GPC3, full length, on the surface of cells (human) (UniProt P51654); test: FACS (FIG. 15A-B)
[19] = biological target: human GPC3, full length, on the surface of cells (human) (UniProt P51654); test: FACS on HepG2 X1 cells and xenograft tumor cells
[20] = biological target: huGPC(aa359-420) (HSV; human); test: FACS on 293 cells expressing the gD-tagged fragment
[21] = biological target: huGPC(aa359-420) (HSV; human); test: FACS on 293 cells expressing the construct
[22] = biological target: full-length N-terminal gD-tagged rat GPC3 expressed on the surface of 293 cells (rat) (UniProt P13265); test: FACS on 293 cells expressing gD-tagged rat GPC3
[23] = biological target: full-length N-terminal gD-tagged rat GPC3 expressed on the surface of 293 cells (rat) (UniProt P13265); test: FACS on 293 cells expressing gD-tagged full-length GPC3
[24] = biological target: full-length N-terminal gD-tagged cynomolgus monkey GPC3 expressed on the surface of 293 cells (cynomolgus monkey); test: as above
[25] = biological target: full-length N-terminal gD-tagged cynomolgus monkey GPC3 expressed on the surface of 293 cells (cynomolgus monkey); test: FACS on 293 cells expressing gD-tagged cynomolgus GPC3

B1: antibody 7H1 (antibody, V domains shown)
VH: QVQLQQSGPELVKPGASVKISCKASGYTFTDYYINWVKQKPGQGLEWIGWIYPGSGHTECNETFKGKATLTVDTSSSTAYMQLSSLTSEDTAVYFCTRGYYAPMGYFDYWGQGTTLTVSS
VL: DIQMTQSPSSLSASLGERVSLTCRASQEISGYLSWLQQKPDGTIKRLIYAASTLDSGVPKRFSGSRSGSDYSLTISGLESEDFADYYCLQYASYPYTFGGGTKLEIK
binding [1]: binds
binding [2]: binds
binding [3]: binds
binding [4]: binds
binding [5]: binds
binding [6]: binds
binding [7]: binds
binding [8]: binds
binding [9]: binds
binding [10]: binds
binding [11]: binds
binding [12]: binds
binding [13]: binds
binding [14]: binds
binding [15]: binds
binding [16]: binds
binding [17]: binds
binding [18]: binds
binding [19]: binds

B2: antibody 15G1 (antibody, human IgG1, kappa, V domains shown)
VH: EVQLLETGGGLVQPGGSRGLSCEGSGFTFSGFWMSWVRQTPGKTLEWIGDINSDGSSINYAPSIKDRFTIFRDNDKSILYLQMTNVRSEDTGTYFCVTTYGDYWGQGTTLTVSS
VL: DIVMTQSQKFMSTSVGDRVSVTCKASQNVGSHVGWYQQKSGQSPKALIYSASNRYIGVPDRFTGSGSGTDFTLTISNVQSEDLAEYFCQQYHIYPYTFGGGTRLEIKR
binding [20]: no binding
binding [21]: no binding
binding [22]: binds
binding [23]: binds
binding [24]: binds
binding [25]: binds
